The text below walks through data of the supplement of paper PMC11006884.

The entries are a selection whose mix differs from that of the whole data set. Single values of this set are uncertain.

Compound in the assay: COC(=O)/C=C/c1ccccc1 [methyl cinnamate]
Nature of the assay: log2 ratio of iodoacetamide-alkyne labeling of the cysteine site, DMSO over compound (competition); higher = stronger covalent engagement of the cysteine by the compound, active = 1 or more. The conditions noted are these: 500 µM; treatment time 1 h; system: HEK293T cell lysate. The essentials: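 HEK293T lysate (2 mg/mL) was treated with DMSO or electrophile (500 µM, 1 h, ambient temperature), then iodoacetamide alkyne (1 h), clicked to sCIP-TMT reagents, pooled, trypsin-digested overnight at 37 °C, streptavidin-enriched and acid-eluted. Peptides were run on Orbitrap Eclipse LC-MS/MS with FAIMS and quantified in FragPipe. The log2 competition ratio per cysteine is mean control-channel over mean compound-channel reporter intensity. Duplicate channels and three replicates were used, and cysteines quantified in only one replicate were excluded.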
Regarding PSMD1 C898 (UniProt Q99460), the “log2 ratio of iodoacetamide-alkyne labeling” value (from here on “log2 ratio”) is inactive: 0.159.

For PPP1R10 C48 (UniProt Q96QC0), the “log2 ratio” value is inactive: 0.175.

Regarding RNF2 C75 (UniProt Q99496), the “log2 ratio” value is inactive: -0.144.

For NCAPG C177 (UniProt Q9BPX3), the “log2 ratio” value was inactive: 0.135.

As to ACO2 C451 (UniProt Q99798), the “log2 ratio” value was inactive: 0.0944.

As for UniProt Q96TA1_C154, the “log2 ratio” value was inactive: 0.12.

Take DOK1 C224 (UniProt Q99704): the “log2 ratio” value is inactive: -0.0928.

Turning to ZFR C812 (UniProt Q96KR1), the “log2 ratio” value was inactive: 0.194.

As for MMS19 C599 (UniProt Q96T76), the “log2 ratio” value was inactive: 0.238.

As for PARK7 C53 (UniProt Q99497), the “log2 ratio” value was inactive: -0.276.

For the target ZFR C974 (UniProt Q96KR1), the “log2 ratio” value is inactive: 0.16.

Turning to NUP88 C561 (UniProt Q99567), the “log2 ratio” value was inactive: 0.0381.

For the target MARK4 C216 (UniProt Q96L34), the “log2 ratio” value is inactive: 0.39.

Consider HNRNPAB C98 (UniProt Q99729), for which the “log2 ratio” value was inactive: 0.211.

As for HSD17B10 C214 (UniProt Q99714), the “log2 ratio” value is inactive: 0.282.

As for PSMB7 C86 (UniProt Q99436), the “log2 ratio” value is inactive: -0.0345.

In the case of PUS7 C38 (UniProt Q96PZ0), the “log2 ratio” value is inactive: 0.0488.

As for NUDCD1 C376 (UniProt Q96RS6), the “log2 ratio” value is inactive: 0.327.

In the case of AGAP3 C356 (UniProt Q96P47), the “log2 ratio” value is inactive: 0.442.

For GRWD1 C11 (UniProt Q9BQ67), the “log2 ratio” value was inactive: 0.352.

On to POP1 C666 (UniProt Q99575), for which the “log2 ratio” value was inactive: -0.0374.

For L3MBTL3 C169 (UniProt Q96JM7), the “log2 ratio” value is inactive: 0.465.
